No constants are given. Whether binding was seen depends on the method and setting. In cells and extracts the contact can be indirect. Some entries that bind do so weakly or less than the wild type.
T1: HSPA13 (UniProt P48723)
T1 sequence: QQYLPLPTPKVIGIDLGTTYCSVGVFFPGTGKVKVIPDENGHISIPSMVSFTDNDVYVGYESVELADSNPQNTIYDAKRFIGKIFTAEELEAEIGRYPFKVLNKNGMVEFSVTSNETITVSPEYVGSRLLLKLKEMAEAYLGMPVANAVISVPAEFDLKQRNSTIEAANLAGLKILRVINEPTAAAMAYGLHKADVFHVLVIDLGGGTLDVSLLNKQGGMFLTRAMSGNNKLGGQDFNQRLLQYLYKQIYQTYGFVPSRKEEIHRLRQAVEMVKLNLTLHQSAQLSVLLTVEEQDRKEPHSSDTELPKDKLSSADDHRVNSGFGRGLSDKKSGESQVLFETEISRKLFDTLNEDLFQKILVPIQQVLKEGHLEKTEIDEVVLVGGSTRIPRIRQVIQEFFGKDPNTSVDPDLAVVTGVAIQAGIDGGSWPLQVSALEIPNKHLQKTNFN

Protein sequences, listed by entry. Tags and fused reporters are not part of them. Residues count along the entry.
UniProt P06733: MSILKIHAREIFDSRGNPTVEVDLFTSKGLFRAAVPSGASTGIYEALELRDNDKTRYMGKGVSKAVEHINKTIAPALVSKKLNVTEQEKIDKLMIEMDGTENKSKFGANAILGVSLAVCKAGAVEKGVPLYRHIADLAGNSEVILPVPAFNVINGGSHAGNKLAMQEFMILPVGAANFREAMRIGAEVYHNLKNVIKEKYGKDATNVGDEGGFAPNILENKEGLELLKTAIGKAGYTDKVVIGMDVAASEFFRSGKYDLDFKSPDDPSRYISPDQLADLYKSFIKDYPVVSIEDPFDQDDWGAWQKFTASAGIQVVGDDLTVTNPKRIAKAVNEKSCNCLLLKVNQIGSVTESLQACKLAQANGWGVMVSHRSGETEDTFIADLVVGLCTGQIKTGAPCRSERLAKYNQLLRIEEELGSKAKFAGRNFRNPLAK
UniProt P09104: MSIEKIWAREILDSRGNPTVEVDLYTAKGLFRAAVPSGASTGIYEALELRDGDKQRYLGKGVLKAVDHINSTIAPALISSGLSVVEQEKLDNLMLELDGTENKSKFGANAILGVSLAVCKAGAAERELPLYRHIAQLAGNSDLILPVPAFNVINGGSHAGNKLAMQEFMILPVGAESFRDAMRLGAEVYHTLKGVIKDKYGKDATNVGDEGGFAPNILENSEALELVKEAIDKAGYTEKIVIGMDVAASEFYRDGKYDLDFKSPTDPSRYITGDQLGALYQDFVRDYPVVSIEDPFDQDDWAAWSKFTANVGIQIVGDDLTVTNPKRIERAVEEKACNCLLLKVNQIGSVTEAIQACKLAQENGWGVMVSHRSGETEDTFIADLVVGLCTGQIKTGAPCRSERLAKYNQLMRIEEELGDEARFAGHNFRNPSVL
UniProt P06731, residues 35-685: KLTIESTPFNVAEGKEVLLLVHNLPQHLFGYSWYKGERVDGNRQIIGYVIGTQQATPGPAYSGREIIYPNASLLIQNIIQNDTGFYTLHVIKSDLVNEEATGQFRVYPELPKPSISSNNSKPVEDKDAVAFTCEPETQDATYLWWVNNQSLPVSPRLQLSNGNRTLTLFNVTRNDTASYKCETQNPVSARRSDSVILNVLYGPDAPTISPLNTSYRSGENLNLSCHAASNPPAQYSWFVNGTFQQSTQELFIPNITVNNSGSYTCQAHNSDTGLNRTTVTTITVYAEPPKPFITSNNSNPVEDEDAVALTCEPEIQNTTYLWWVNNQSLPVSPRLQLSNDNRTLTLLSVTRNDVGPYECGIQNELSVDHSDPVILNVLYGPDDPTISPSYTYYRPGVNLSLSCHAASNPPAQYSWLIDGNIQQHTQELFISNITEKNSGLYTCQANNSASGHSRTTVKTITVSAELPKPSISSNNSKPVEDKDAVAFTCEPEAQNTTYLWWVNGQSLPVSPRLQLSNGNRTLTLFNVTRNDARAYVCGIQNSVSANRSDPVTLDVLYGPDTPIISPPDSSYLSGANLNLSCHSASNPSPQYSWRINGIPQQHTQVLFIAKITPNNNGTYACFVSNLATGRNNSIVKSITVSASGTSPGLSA


Target: T1, HSPA13
Test: co-IP

| binding | Molecule |
| --- | --- |
| binds | ENO1 (from UniProt P06733 1-434) |
| binds | ENO2 (from UniProt P09104 1-434) |
| binds | CEACAM5 (CEA) (from UniProt P06731 35-685) |
| binds | GPC1 (protein, UniProt P35052 24-530) DPASKSRSCGEVRQIYGAKGFSLSDVPQAEISGEHLRICPQGYTCCTSEMEENLANRSHAELETALRDSSRVLQAMLATQLRSFDDHFQHLLNDSERTLQATFPGAFGELYTQNARAFRDLYSELRLYYRGANLHLEETLAEFWARLLERLFKQLHPQLLLPDDYLDCLGKQAEALRPFGEAPRELRLRATRAFVAARSFVQGLGVASDVVRKVAQVPLGPECSRAVMKLVYCAHCLGVPGARPCPDYCRNVLKGCLANQADLDAEWRNLLDSMVLITDKFWGTSGVESVIGSVHTWLAEAINALQDNRDTLTAKVIQGCGNPKVNPQGPGPEEKRRRGKLAPRERPPSGTLEKLVSEAKAQLRDVQDFWISLPGTLCSEKMALSTASDDRCWNGMARGRYLPEVMGDGLANQINNPEVEVDITKPDMTIRQQIMQLKIMTNRLRSAYNGNDVDFQDASDDGSGSGSGDGCLDDLCSRKVSRKSSSSRTPLTHALPGLSEQEGQKTS |
| binds | transforming growth factor beta induced (TGFBI) (protein, UniProt Q15582 24-683) GPAKSPYQLVLQHSRLRGRQHGPNVCAVQKVIGTNRKYFTNCKQWYQRKICGKSTVISYECCPGYEKVPGEKGCPAALPLSNLYETLGVVGSTTTQLYTDRTEKLRPEMEGPGSFTIFAPSNEAWASLPAEVLDSLVSNVNIELLNALRYHMVGRRVLTDELKHGMTLTSMYQNSNIQIHHYPNGIVTVNCARLLKADHHATNGVVHLIDKVISTITNNIQQIIEIEDTFETLRAAVAASGLNTMLEGNGQYTLLAPTNEAFEKIPSETLNRILGDPEALRDLLNNHILKSAMCAEAIVAGLSVETLEGTTLEVGCSGDMLTINGKAIISNKDILATNGVIHYIDELLIPDSAKTLFELAAESDVSTAIDLFRQAGLGNHLSGSERLTLLAPLNSVFKDGTPPIDAHTRNLLRNHIIKDQLASKYLYHGQTLETLGGKKLRVFVYRNSLCIENSCIAAHDKRGRYGTLFTMDRVLTPPMGTVMDVLKGDNRFSMLVAAIQSAGLTETLNREGVYTVFAPTNEAFRALPPRERSRLLGDAKELANILKYHIGDEILVSGGIGALVRLKSLQGDKLEVSLKNNVVSVNKEPVAEPDIMATNGVVHVITNVLQPPANRPQERGDELADSALEIFKQASAFSRASQRSVRLAPVYQKLLERMKH |
